Assay results from patent US20160272977.
For part of these data: A negative result means that nothing was seen under these conditions. For part of these data: Weaker means in comparison with the reference protein, sequence or condition of that experiment. For part of these data: Construct, isoform or probe ends are uncertain for at least one entry. For part of these data: Where cells or extracts were used, other partners may take part. For part of these data: The direction of at least one scale is not stated here.

By UniProt entry, the sequences of proteins in these tests, tags left out. Where a name states a change or a piece, a line headed by the entry shows the natural chain unless it says otherwise.
UniProt P26358: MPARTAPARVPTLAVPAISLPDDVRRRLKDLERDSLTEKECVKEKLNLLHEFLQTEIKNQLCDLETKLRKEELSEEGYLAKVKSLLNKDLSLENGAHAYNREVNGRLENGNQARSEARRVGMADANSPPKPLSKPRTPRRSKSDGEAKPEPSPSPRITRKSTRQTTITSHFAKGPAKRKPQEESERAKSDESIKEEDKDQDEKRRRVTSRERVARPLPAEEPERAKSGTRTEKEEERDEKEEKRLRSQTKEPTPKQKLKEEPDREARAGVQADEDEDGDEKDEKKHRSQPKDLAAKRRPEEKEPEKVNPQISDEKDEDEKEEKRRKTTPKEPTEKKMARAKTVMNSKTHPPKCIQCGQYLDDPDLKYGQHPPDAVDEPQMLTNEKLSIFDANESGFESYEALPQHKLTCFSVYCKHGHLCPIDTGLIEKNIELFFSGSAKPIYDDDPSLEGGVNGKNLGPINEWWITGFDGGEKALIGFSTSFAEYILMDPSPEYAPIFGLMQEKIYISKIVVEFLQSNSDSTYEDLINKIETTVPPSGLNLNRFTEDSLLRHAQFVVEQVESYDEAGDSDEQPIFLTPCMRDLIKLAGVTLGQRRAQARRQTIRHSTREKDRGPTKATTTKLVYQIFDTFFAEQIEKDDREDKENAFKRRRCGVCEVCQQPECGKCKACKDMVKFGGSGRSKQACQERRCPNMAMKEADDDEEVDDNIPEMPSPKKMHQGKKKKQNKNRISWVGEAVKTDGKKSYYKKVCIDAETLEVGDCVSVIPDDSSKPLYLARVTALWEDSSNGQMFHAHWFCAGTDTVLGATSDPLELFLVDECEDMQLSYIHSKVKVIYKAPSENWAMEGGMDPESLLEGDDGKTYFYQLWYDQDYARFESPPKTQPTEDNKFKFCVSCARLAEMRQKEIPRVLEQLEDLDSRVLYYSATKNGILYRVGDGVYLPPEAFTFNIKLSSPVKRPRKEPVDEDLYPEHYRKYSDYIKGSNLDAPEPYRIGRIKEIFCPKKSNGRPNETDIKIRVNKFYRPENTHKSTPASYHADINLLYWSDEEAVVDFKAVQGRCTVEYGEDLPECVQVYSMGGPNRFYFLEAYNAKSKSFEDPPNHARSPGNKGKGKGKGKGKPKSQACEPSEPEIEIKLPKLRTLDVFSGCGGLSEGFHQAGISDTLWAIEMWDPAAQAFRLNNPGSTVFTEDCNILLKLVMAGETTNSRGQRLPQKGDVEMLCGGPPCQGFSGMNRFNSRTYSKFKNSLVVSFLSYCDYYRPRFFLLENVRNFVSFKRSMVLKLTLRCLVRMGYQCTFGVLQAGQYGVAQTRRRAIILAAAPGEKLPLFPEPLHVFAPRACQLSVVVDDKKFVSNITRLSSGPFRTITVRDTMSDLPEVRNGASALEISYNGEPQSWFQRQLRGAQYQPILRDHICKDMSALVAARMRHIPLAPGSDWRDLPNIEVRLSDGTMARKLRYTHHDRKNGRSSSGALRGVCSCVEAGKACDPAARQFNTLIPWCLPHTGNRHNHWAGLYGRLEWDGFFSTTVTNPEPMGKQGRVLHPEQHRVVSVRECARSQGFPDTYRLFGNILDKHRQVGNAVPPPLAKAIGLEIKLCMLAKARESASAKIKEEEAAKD
UniProt P15840: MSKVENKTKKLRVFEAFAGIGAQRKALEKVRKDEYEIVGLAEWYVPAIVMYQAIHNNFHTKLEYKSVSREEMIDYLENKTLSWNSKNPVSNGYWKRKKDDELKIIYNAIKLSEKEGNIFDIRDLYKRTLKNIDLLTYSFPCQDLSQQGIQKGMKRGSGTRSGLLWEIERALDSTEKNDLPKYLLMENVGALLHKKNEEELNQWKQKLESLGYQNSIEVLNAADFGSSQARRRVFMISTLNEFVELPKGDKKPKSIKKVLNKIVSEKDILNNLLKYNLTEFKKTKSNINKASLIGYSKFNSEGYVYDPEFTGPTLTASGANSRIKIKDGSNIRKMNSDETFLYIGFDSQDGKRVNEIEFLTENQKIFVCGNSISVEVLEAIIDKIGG

Assays:
[1] = target: DNMT1 full-length (Homo sapiens) (UniProt P26358); assay: SELEX; conditions: purified recombinant protein, protein details: baculovirus Sf9, chitin bead-bound for selection
[2] = target: DNMT1 full-length (Homo sapiens) (UniProt P26358); assay: activity assay; conditions: 5mC at C of each CGG on one strand; methylation substrate with [3H]AdoMet, 37 C; purified recombinant protein; protein details: baculovirus Sf9, chitin bead-bound for selection
[3] = test system: M.HpaII; assay: inhibition of the protein; conditions: little to no inhibition at 5 uM RNA, pUC19 substrate, purified recombinant protein
[4] = target: M.SssI (UniProt P15840); assay: inhibition of the protein; conditions: little to no inhibition at 5 uM RNA, pUC19 substrate, purified recombinant protein
[5] = target: DNMT1 full-length (Homo sapiens) (UniProt P26358); assay: inhibition of the protein; conditions: some loss of inhibition, 5.28 uM RNA; purified recombinant protein; protein details: baculovirus Sf9, chitin bead-bound for selection; variant of miR-155-5p
[6] = target: DNMT1 endogenous (HCT-116) (Homo sapiens) (UniProt P26358); assay: pull-down; conditions: DNMT1 immunoprecipitation plus qPCR, HCT-116 overexpressing miR-155-5p, p<=0.001; protein in cells
[7] = label: 5'-33P in pull-down, variant of asCEBPα-2

AAAAGGGAACGUGAGCUGGGUUU [selected RNA 4]
selection result ([1]; among five most frequent RNAs): selected

AACGAGUAGGACGUGCGCGGCGG [selected RNA 3]
selection result ([1]; among five most frequent RNAs): selected

AGCGAACAAGUACCGUGAGGGAA [selected RNA 5]
selection result ([1]; among five most frequent RNAs): selected

AGGACGUGCGCGGCGGAGAGCGC [selected RNA 1]
selection result ([1]; among five most frequent RNAs in one-round selection, 37 C): selected

AGUUCGAUGUCGGGGCUCGGAAU [selected RNA 2]
selection result ([1]; among five most frequent RNAs): selected

CGGCGGCGGCGGCGGCGGCGGCGGCGGCGGCGGCGG (double strand) [hemimethylated (CMeGG•CCG)12 36-bp DNA]
activity on this sequence [2]: active

GACAGUGGAGAGGGGCGGAGCGG [asCEBPα-2HPE]
activity on this sequence [3, 7]: not active | activity on this sequence [4, 7]: not active

UUAAUGCUAAUCGUGAUAGGG [3p-1]
activity on this sequence [5]: less active

UUAAUGCUAAUCGUGAUAGGGGU [miR-155-5p]
binding signal (fold over IgG) [6]: 1.5 | activity on this sequence [3]: not active | activity on this sequence [4]: not active
